About 770 (0.35%) of roughly 220,000 compounds were called active. Inconclusive results, whose numbers are uncertain, are shown with a selection of clear calls. Cut-off read from the data, not from the text of the source: active = binding response below about 49% or above about 150%; inconclusive = no clear call, values can overlap the other calls; inactive = in between.
target: Guanine nucleotide-binding protein G(o) subunit alpha (Homo sapiens) (UniProt P09471); assay: RGS7-Galphao binding modulators, primary screen, biochemical, multiplexed bead flow cytometry (AID 1439); details: at 10 µM, actives lie on both sides;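 note: fluorescent Galphao held in activated GDP-AlF4 state binding bead-coupled RGS7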

Sequences of proteins named here, by UniProt entry; tags and fusion partners are left off.
UniProt P09471, whole entry, looked up: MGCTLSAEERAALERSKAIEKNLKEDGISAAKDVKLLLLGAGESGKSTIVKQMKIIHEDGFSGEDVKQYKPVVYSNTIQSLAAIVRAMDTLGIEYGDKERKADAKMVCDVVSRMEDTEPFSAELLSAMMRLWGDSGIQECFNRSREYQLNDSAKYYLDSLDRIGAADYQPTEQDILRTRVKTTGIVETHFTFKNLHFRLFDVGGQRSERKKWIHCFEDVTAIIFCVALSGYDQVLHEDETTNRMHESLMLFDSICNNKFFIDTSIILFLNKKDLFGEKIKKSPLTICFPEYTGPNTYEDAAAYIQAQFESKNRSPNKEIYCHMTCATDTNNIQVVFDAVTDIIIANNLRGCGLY

Structure (SMILES) | binding response (% of control)
c1ccc2oc(-c3ccn[nH]3)cc2c1 | inconclusive: 61.6%
CC(=O)c1sc(-c2ccc(F)cc2F)nc1C | inconclusive: -242%
Clc1ccc(-c2nc3ccccc3[nH]2)cn1 | inconclusive: -21.2%
Cc1ccc(C)n1-n1c(C)nc2scc(-c3ccccc3)c2c1=O | inactive: 139%
O=C(O)/C=C/c1ccc(S(=O)(=O)N2CCN(CCN3C(=O)C4C5C=CC(C5)C4C3=O)CC2)cc1 (stereo unspecified) | inconclusive: 99.5%
O=C(Nc1nc(-c2ccccc2)ns1)c1ccncc1 | inconclusive: 100%
COc1cc(/C=N/NC(=O)c2ccc(CN3C(=O)c4cccc5cccc3c45)cc2)cc(OC)c1O | inconclusive: 103%
Cc1ccc(S(=O)(=O)N2CCOCC2)cc1NC(=O)CNCc1ccccn1 | inconclusive: 105%
Cc1cc(C)c(OCCCON2C(=O)CCC2=O)c(Br)c1 | inconclusive: 132%
O=C(CCSc1ccccc1)OCn1nnc2ccccc2c1=O | inconclusive: 109%
O=C(CSc1nc(-c2ccc(Cl)cc2)[nH]c(=O)n1)Nc1cccc(Cl)c1 | inconclusive: 84%
CNC(=O)Nc1cc(NC(=O)NC)cc(C(F)(F)F)c1 | inconclusive: 100%
CC(C)(C)c1cc(CN(CCO)CCO)c(O)c(C(C)(C)C)c1 | inconclusive: 112%
COc1ccccc1C(=O)O/N=C(\N)c1ccccn1 | inconclusive: 120%
COC(=O)[C@@H]1C[C@@H]2CC[C@@H](O)C[C@@H]2N1Cc1ccc(OC)cc1 | inconclusive: 133%
Cc1cc(NC(=O)C2CCCO2)ccc1Br (stereo unspecified) | inconclusive: 93.9%
CCOC(=O)C1(CCc2ccccc2)CCN(C(=O)C2CCCO2)CC1 (stereo unspecified) | inactive: 96.2%
CCCCOc1ccc(OC(=O)Nc2cc(Cl)ccc2OC)cc1 | inconclusive: 95.4%
Cc1cccc2c1-c1sc(C(=O)Nc3ccccc3N3CCN(C)CC3)cc1CO2 | inconclusive: 105%
Cc1cccc(C)c1NC(=O)NNC(=O)c1cc(C(C)(C)C)nn1Cc1ccccc1 | inconclusive: 141%
CCOC(=O)c1c(NC(=S)N2CCOCC2)sc2c1CCN(C(=O)OCC)C2 | inconclusive: 353%
Cc1ccc(N2C(=O)CC(Nc3cccc4ccccc34)C2=O)cc1 (stereo unspecified) | inconclusive: 89.7%
O=c1[nH]c2ccccc2c2nc(-c3cccc(S(=O)(=O)N4CCCC4)c3)nn12 | inconclusive: 110%

Structure (SMILES) | binding response (% of control)
Cn1nc(C(=O)OCC(=O)Nc2ccc3ccccc3c2)c2ccccc2c1=O | inactive: 97.7%
COc1ccc(N2CCN(C(=O)C3CCC(Cn4c(=S)[nH]c5ccccc5c4=O)CC3)CC2)cc1 (stereo unspecified) | inactive: 101%
Oc1ccc(Cc2ccc(Cl)cc2)c(O)c1 | inconclusive: 62.6%
CCOc1ccc(-n2cnc3c(=O)[nH]c(N)nc32)cc1 | inconclusive: 124%
COc1cc(N2CN=c3s/c(=C\c4ccccn4)c(=O)n3C2)cc(OC)c1OC | inactive: 106%
Cc1cccc(NC(=O)CSc2ccc(-c3ccccn3)nn2)c1C | inconclusive: 83.3%
CC(C)CNS(=O)(=O)c1ccc(CCC(=O)N2CCN(c3ccc(F)cc3)CC2)cc1 | inconclusive: 93%
CC(C)Cn1nc(NC(=O)c2cccs2)c2cc3ccccc3nc21 | inconclusive: 118%
COc1ccc(-n2ncc(Cl)c(Cl)c2=O)cc1 | inconclusive: 82.2%
CCCCn1c(SCC(=O)Nc2cc(C)on2)nnc1-c1cccs1 | inconclusive: 129%
O=C(Nc1nnc(CCN2CCCCC2)s1)c1cccc(Cl)c1 | inconclusive: 107%
CC(=O)Nc1ccc(S(=O)(=O)NC2CCS(=O)(=O)C2)cc1Cl (stereo unspecified) | inconclusive: 380%
CCC1(CC)NC(=O)N(CC(=O)OCC(=O)Nc2ccc(F)c(F)c2F)C1=O | inactive: 104%
COc1ccc(N2CC(C(=O)N/N=C/c3ccc([N+](=O)[O-])cc3)CC2=O)cc1 (stereo unspecified) | inconclusive: 81.6%
O=C(N/N=C/c1cc(Cl)cc(Cl)c1O)c1ccncc1 | inconclusive: 169%
Cc1cc(NC(=O)C23CC4CC(CC(C4)C2)C3)n[nH]1 | inconclusive: 94%
CCOC(=O)c1c2c([nH]c(=S)c1C#N)CCCC2 | inconclusive: 169%
COc1ccc2cc1Oc1ccc(cc1)C[C@H]1c3c(cc4c(c3Oc3cc5c(cc3OC)CCN(C)[C@@H]5C2)OCO4)CCN1C | inconclusive: 86.5%
CCCOc1ccc(C(=O)NCCC(=O)NCCCC(=O)O)cc1 | inconclusive: 91.2%
CCn1ncc(-c2ccnc3cc(C(=O)O)nn23)c1C | inconclusive: 96.1%
COc1ccc(Nc2nnc(SCC3CCCCO3)s2)cc1 (stereo unspecified) | inconclusive: 130%
CCOC(=O)CSc1nc2ccccc2c(=O)n1CC1COc2ccccc2O1 (stereo unspecified) | active: -13.9%
COC(=O)c1cc(S(=O)(=O)Nc2ccsc2C(=O)OC)oc1C | inconclusive: 125%

Structure (SMILES) | binding response (% of control)
COC(=O)c1c(NC(=O)CCCC(=O)O)sc2c1CCCCC2 | inconclusive: 116%
Cc1onc(-c2c(F)cccc2Cl)c1C(=O)OCC(=O)c1c[nH]c2ccccc12 | inconclusive: 80.5%
O=C(NC(=S)NCC1CCCO1)c1ccccc1[N+](=O)[O-] (stereo unspecified) | inactive: 92.4%
Nc1cc(N)nc(SCc2cc([N+](=O)[O-])cc3c2OCOC3)n1 | inconclusive: 141%
Cn1c(=O)c2c(nc(SCCN3CCOCC3)n2Cc2ccc(F)cc2)n(C)c1=O | inactive: 133%
COCCSc1nnc(NC(=O)C(C)(C)C)s1 | inactive: 106%
CN(C)CCNc1nc2sc3c(c2c(=O)n1-c1ccccc1)CCCCC3 | inconclusive: 102%
COc1ccc(S(=O)(=O)N2CCOCC2)cc1NC(=O)COC(=O)C1=COCCO1 | inconclusive: 93%
CC1(C)CC(=O)C2=C(C1)N(CCN1CCOCC1)C1=C(C(=O)CC(C)(C)C1)C2c1ccc(Cl)c([N+](=O)[O-])c1 | inconclusive: 77.4%
Cc1c(Cl)c(=O)n2c(=O)c(Cl)c(C)n12 | inconclusive: 109%
Cc1cccc(OCC(=O)N2CCCc3ccccc32)c1 | inactive: 101%
O=C(CCc1nc2ccccc2c(=O)[nH]1)OCc1ccc(Cl)cc1Cl | inactive: 102%
Cc1ccc2cc(/C=C/C(=O)c3ccco3)c(Cl)nc2c1 | inconclusive: 96.6%
COCCNC(=S)N/N=C(\C)c1ccc(OC(F)F)cc1 | inconclusive: 99.2%
COC(=O)[C@@H]1C[C@@]2(O)[C@@H](O)[C@@H](O)[C@@H](O)C[C@H]2N1CC1CCCCC1 | inconclusive: 93.3%
O=C(CN1C(=O)NC2(CCCC2)C1=O)N1CCN(C(=O)c2ccco2)CC1 | inactive: 104%
CCOC(=O)c1sc(CS(=O)(=O)c2ccc(Cl)cc2)nc1C | inconclusive: 104%
CCOC(=O)c1csc(NC(=O)c2ccc(OCC)cc2)n1 | inconclusive: 79.7%
COC(=O)c1ccc(CN(c2ccccc2Cl)S(C)(=O)=O)cc1 | inconclusive: 92.9%
CCc1nc(SCc2ccc(F)cc2)n[nH]1 | inactive: 101%
Cc1cc(F)ccc1NC(=O)C1CCCO1 (stereo unspecified) | inconclusive: 122%
COc1cc(/C(C)=N/NC(=O)CSc2nc3ccccc3[nH]2)ccc1O | inconclusive: 94.5%
CC(=O)Nc1ccc(C(=O)OCC(=O)NC2CCCCCCC2)cc1 | inactive: 101%

Part of the list above, tab-delimited:
Structure (SMILES)	binding response (% of control)
O=C(O)/C=C/c1ccc(S(=O)(=O)N2CCN(CCN3C(=O)C4C5C=CC(C5)C4C3=O)CC2)cc1 (stereo unspecified)	inconclusive: 99.5%
CCOc1ccc(-n2cnc3c(=O)[nH]c(N)nc32)cc1	inconclusive: 124%
COc1cc(N2CN=c3s/c(=C\c4ccccn4)c(=O)n3C2)cc(OC)c1OC	inactive: 106%
CCOC(=O)c1csc(NC(=O)c2ccc(OCC)cc2)n1	inconclusive: 79.7%

Following part.

Structure (SMILES) | binding response (% of control)
CCOc1ccccc1N1CN(Cc2ccccc2)CNC1=S | inconclusive: 92.6%
Cc1ccc(S(=O)(=O)CC(c2ccccc2)N2CCCCC2)cc1 (stereo unspecified) | inconclusive: 71.5%
Cc1[nH]c2ccc(F)cc2c1CCN1C(=O)OC(C)(C)C1(C)O (stereo unspecified) | inconclusive: 123%
Cc1cc(C(=O)COC(=O)c2ccncc2)c(C)n1CCc1ccc(F)cc1 | inconclusive: 106%
O=c1oc2ccccc2c(N2CCCCC2)c1[N+](=O)[O-] | inactive: 102%
COc1ccc(OC)c(S(=O)(=O)NC(N)=NCCc2ccccc2)c1 | inactive: 104%
COCCn1cnc2c1c(=O)n(CC(=O)c1ccc3c(c1)OCCO3)c(=O)n2Cc1ccccc1 | inconclusive: 77.8%
OC(COc1ccc(Cl)cc1)CN1CCN(c2cccc(Cl)c2)CC1 (stereo unspecified) | inconclusive: 118%
CCOc1cc(CNc2ccc3c(c2)CCC3)ccc1OC | inactive: 99.4%
CC(C)OC(=O)C1C(=O)CC(C)(O)C(C(=O)OC(C)C)C1c1ccccc1 (stereo unspecified) | active: 1.77%
CN(CC(=O)Nc1ccc(C(N)=O)cc1)CC(=O)Nc1ccccc1Br | inconclusive: 88.2%
O=C(Cn1nc(Cc2cccnc2)c2ccccc2c1=O)Nc1cccnc1Cl | inactive: 91.1%
O=C(O)CCc1nn2c3ccccc3n(Cc3ccccc3F)c2nc1=O | inactive: 95.9%
COCCNC(=O)c1onc(CSc2ccc(F)cc2)c1C(=O)NCCOC | inconclusive: 103%
CC1CC(NC(=O)CC#N)CC(C)(C)C1 (stereo unspecified) | inconclusive: 112%
Cc1cscc1NC(=O)/C=C/C(=O)O | inconclusive: 226%
Cc1nc([N+](=O)[O-])c(Br)n1Cc1ccccc1 | inconclusive: 110%
[O-]c1n[n+](-c2ccc(Cl)cc2)cc2ccccc12 | inconclusive: 80.2%
CN(C)c1ccc(/C=C2\N=C(c3ccc(Cl)c([N+](=O)[O-])c3)NC2=O)cc1 | inactive: 101%
CC(=O)Nc1ccc(N=Cc2c(O)c(C(=O)Nc3ccccc3)cc3ccccc23)cc1 | inactive: 101%
COc1ccc(OC)c(NC(=O)C(=O)NNC(=O)C23CC4CC(CC(C4)C2)C3)c1 | inconclusive: 127%
O=C(Nc1ccccc1N1CCOCC1)C1CCN(S(=O)(=O)c2ccc(Cl)cc2)CC1 | inconclusive: 91%

Reference: PubChem BioAssay AID1439 (NMMLSC, 2008)
